Measurements reported in PubChem BioAssay AID1224828 (NIAID, 2016)
The whole screen tested about 17,000 reagents; this is an unselected part. 762 of all reagents (4.5%) were called active. 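Active calls include both raised and lowered p65 entry, mostly lowered; wells with fewer than 50 cells lack a z-score.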 Raw values vary from plate to plate and are shown uncorrected. Entries without a mark were called inactive. The numbers tell different reagents against one gene apart.

Assay: 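Knock-downs that increase or decrease LPS-induced p65 nuclear translocation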 (primary screen)
Cell system: mouse RAW264.7 G9 macrophage reporter cells (GFP-p65, Tnf promoter-mCherry)
Knock-down reagent: siRNA pool against mouse genes, 100 nM
Timing: 2 days siRNA transfection, then 40 min LPS before fixation
Treatment: LPS (Salmonella minnesota R595) at 10 ng/ml
Detection: 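Microscopy ratio of nuclear to perinuclear-ring GFP-p65 signal, scaled to the plate median; gene score is the average of two replicate robust z-scores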
Scale: p65 translocation robust z-score: higher = more nuclear NF-kappaB p65 after LPS than the plate median; nuclear/cytoplasmic p65 ratio: higher = more nuclear NF-kappaB p65
Rule for the call: 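Called active when z exceeds 3.3 or falls under -1.56 (median of Tlr4 controls), giving activity score of at least 50; no calls for control wells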
Calls: active = hit (p65 shift raised or lowered); inactive = no clear change

no.	gene	reagent	p65 translocation robust z-score	nuclear/cytoplasmic p65 ratio, rep 1	nuclear/cytoplasmic p65 ratio, rep 2	low cell count flag
1	Map7d3	1		1.39	1.59	fewer than 50 cells per well; well left out of scoring
2	Tmem202	1		1.49	1.54	fewer than 50 cells per well; well left out of scoring
3	Cln8	1	-0.3	1.44	1.33	enough cells to score
4	Nmnat2	1	4.48 (active)	2.11	2.65	enough cells to score
5	Fat4	1	-1.76 (active)	1.21	1.28	enough cells to score
6	Fat4	2		1.25	1.21	fewer than 50 cells per well; well left out of scoring
7	Pramel12	1		1.37	1.17	fewer than 50 cells per well; well left out of scoring
8	Slc35f1	1		1.28	0.951	fewer than 50 cells per well; well left out of scoring
9	Lctl	1	0.25	1.7	1.36	enough cells to score
10	Lce1h	1	-0.5	1.34	1.19	enough cells to score
11	Kdm1a	1	0.19	1.5	1.38	enough cells to score
12	Ube2n	1		0.973	1.6	fewer than 50 cells per well; well left out of scoring
13	Phtf2	1	0.9	1.63	1.52	enough cells to score
14	Irs4	1	-0.49	1.48	1.25	enough cells to score
15	Slc6a6	1	-0.11	1.39	1.24	enough cells to score
16	Or5d20	1	-2.81 (active)	1.39	1.13	enough cells to score
17	Wwox	1	0.07	1.62	1.42	enough cells to score
18	Rpap3	1		1.28	1.1	fewer than 50 cells per well; well left out of scoring
19	Il7	1	0.15	1.48	1.41	enough cells to score
20	Eif3m	1	0.58	1.61	1.6	enough cells to score
21	Serinc3	1	-0.67	1.46	1.4	enough cells to score
22	Tacr3	1	-0.31	1.47	1.5	enough cells to score
23	Vps54	1	-0.83	1.27	1.13	enough cells to score
24	Slc17a9	1	0.31	1.69	1.82	enough cells to score
25	Cyth2	1	-1.44	1.32	1.2	enough cells to score
26	Tyms	1	1	1.61	1.68	enough cells to score
27	Cblc	1	-0.32	1.36	1.34	enough cells to score
28	Kif20a	1	-1.23	1.3	1.23	enough cells to score
29	Eya2	1	1.05	1.63	1.48	enough cells to score
30	Eef1a1	1	-1.25	1.31	1.19	enough cells to score
31	Atp5po	1	-0.76	1.45	1.44	enough cells to score
32	Htt	1	0	1.42	1.39	enough cells to score
33	Des	1	1.72	1.81	1.81	enough cells to score
34	Vmn1r5	1	1.83	1.61	1.45	enough cells to score
35	Neurog1	1	-0.69	1.7	1.47	enough cells to score
36	Vmn2r-ps105	1	-1.94 (active)	1.27	1.26	enough cells to score
37	Nr1h3	1		1.2	1.12	fewer than 50 cells per well; well left out of scoring
38	Rtca	1		1.49	1.13	fewer than 50 cells per well; well left out of scoring
39	Snrk	1	-0.39	1.53	1.33	enough cells to score
40	Dnm1	1	-2.44 (active)	1.23	1.06	enough cells to score
41	Slc9a4	1	0.9	1.44	1.33	enough cells to score
42	Atp1a2	1	-0.27	1.54	1.61	enough cells to score
43	Mrfap1	1	-0.89	1.32	1.4	enough cells to score
44	Or2d2	1		1.28	1.11	fewer than 50 cells per well; well left out of scoring
45	Numb	1	1.11	1.66	1.5	enough cells to score
46	Ccl7	1	1.02	1.66	1.46	enough cells to score
47	Clec9a	1	-0.66	1.35	1.45	enough cells to score
48	Tmprss11d	1	0.76	1.65	2.02	enough cells to score
49	Cbr3	1	1.05	1.7	1.42	enough cells to score
50	Elmo3	1	-0.57	1.3	1.3	enough cells to score
51	Rps6ka3	1	0.81	1.85	1.45	enough cells to score
52	Slc22a29	1	-0.34	1.5	1.52	enough cells to score
53	Hsd3b7	1	1.71	1.92	1.54	enough cells to score
54	Cyth4	1	-0.54	1.38	1.38	enough cells to score
55	Srms	1		2.22	1.54	fewer than 50 cells per well; well left out of scoring
56	Or8g36	1	1.38	1.61	1.41	enough cells to score
57	Tafa4	1	1.87	1.72	1.74	enough cells to score
58	Has3	1	1.28	1.92	1.66	enough cells to score
59	Sipa1	1	-1.36	1.31	1.4	enough cells to score

In a second layout: 8 of the entries above
{"gene": "Snrk", "reagent": 1, "p65 translocation robust z-score": -0.39, "nuclear/cytoplasmic p65 ratio, rep 1": 1.53, "nuclear/cytoplasmic p65 ratio, rep 2": 1.33, "low cell count flag": "enough cells to score"}
{"gene": "Dnm1", "reagent": 1, "p65 translocation robust z-score": "-2.44 (active)", "nuclear/cytoplasmic p65 ratio, rep 1": 1.23, "nuclear/cytoplasmic p65 ratio, rep 2": 1.06, "low cell count flag": "enough cells to score"}
{"gene": "Slc9a4", "reagent": 1, "p65 translocation robust z-score": 0.9, "nuclear/cytoplasmic p65 ratio, rep 1": 1.44, "nuclear/cytoplasmic p65 ratio, rep 2": 1.33, "low cell count flag": "enough cells to score"}
{"gene": "Atp1a2", "reagent": 1, "p65 translocation robust z-score": -0.27, "nuclear/cytoplasmic p65 ratio, rep 1": 1.54, "nuclear/cytoplasmic p65 ratio, rep 2": 1.61, "low cell count flag": "enough cells to score"}
{"gene": "Mrfap1", "reagent": 1, "p65 translocation robust z-score": -0.89, "nuclear/cytoplasmic p65 ratio, rep 1": 1.32, "nuclear/cytoplasmic p65 ratio, rep 2": 1.4, "low cell count flag": "enough cells to score"}
{"gene": "Or2d2", "reagent": 1, "nuclear/cytoplasmic p65 ratio, rep 1": 1.28, "nuclear/cytoplasmic p65 ratio, rep 2": 1.11, "low cell count flag": "fewer than 50 cells per well; well left out of scoring"}
{"gene": "Numb", "reagent": 1, "p65 translocation robust z-score": 1.11, "nuclear/cytoplasmic p65 ratio, rep 1": 1.66, "nuclear/cytoplasmic p65 ratio, rep 2": 1.5, "low cell count flag": "enough cells to score"}
{"gene": "Ccl7", "reagent": 1, "p65 translocation robust z-score": 1.02, "nuclear/cytoplasmic p65 ratio, rep 1": 1.66, "nuclear/cytoplasmic p65 ratio, rep 2": 1.46, "low cell count flag": "enough cells to score"}
